Binding data for two molecules are collected here from publication PMC12327844.

Chains of the proteins cited; added tags and fusions are not shown. Lines headed by an entry give the natural chain unless they say otherwise; changes in a name come on top.
UniProt A4IMB4: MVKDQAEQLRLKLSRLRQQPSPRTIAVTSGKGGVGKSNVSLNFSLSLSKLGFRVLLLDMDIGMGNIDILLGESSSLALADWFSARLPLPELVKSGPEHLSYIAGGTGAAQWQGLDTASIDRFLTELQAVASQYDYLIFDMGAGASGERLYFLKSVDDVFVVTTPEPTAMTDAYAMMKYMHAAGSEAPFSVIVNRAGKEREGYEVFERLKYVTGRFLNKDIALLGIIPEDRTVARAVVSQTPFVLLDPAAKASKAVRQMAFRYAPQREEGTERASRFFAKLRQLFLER

No constants are given. Whether binding was seen depends on the method and setting. Binding can be weak; no strength is given.

The target in assay [1] is GST-tagged GtFlhG (Geobacillus thermodenitrificans NG80-2) (UniProt A4IMB4). As to the kind of experiment: pull-down; GST pulldown with 2 mM ADP; 1 nmol GST-tagged bait on glutathione agarose beads, 10 nmol prey; SEC buffer, room temperature; Coomassie-stained SDS-PAGE; both purified.
The target is the same in assay [2]. The assay is described as follows: pull-down; competition pulldown: GST-GtFlhG as bait, GtGpsB and GtFliY as prey, GtFliY in increasing amounts (1, 5 and 10 nmol), 2 mM ATP; SDS-PAGE and Western blot with a 6x-His tag-specific antibody (Figure S11b); both purified. On the technique in general: Immunoblotting shows a protein as a band on a membrane.
Assay [3] shares this target. As to the kind of experiment: pull-down; GST pulldown, nucleotide not stated for these panels (Figure S6, Figure 3b); GST-tagged bait on glutathione agarose beads; SEC buffer, room temperature; Coomassie-stained SDS-PAGE; both purified.
Assay [4] has the same target. As to the kind of experiment: pull-down; GST pulldown with 2 mM ATP; 1 nmol GST-tagged bait on glutathione agarose beads, 10 nmol prey; SEC buffer, room temperature; Coomassie-stained SDS-PAGE; both purified.
Assay [5] concerns the target GtFlhG (Geobacillus thermodenitrificans NG80-2) (UniProt A4IMB4). The assay is described as above.

B1: GtGpsB (protein, UniProt A4IN56 1-98)
chain: MSANQVKLTPKDILEKEFKVSMRGYNQDEVDQFLDIVIKDYEAFQQELDELRQENARLKRQVEELQKRPTTPTGTTNYDILQRLSNLEKHVFGRKLYE
Consider B1, for which the binding result in assay [1] is recorded as “binds weakly”; in assay [2] it was “binds”; in assay [3] it was “binds”; in assay [4], “binds”; in assay [5], “binds”.

B2: GtFliY (protein, UniProt A0ABY9QFT0 1-394)
chain: MMNDGMLSQDEIDALLRGMDDSDHVPALHDIFTPLEQDAIGEIGNISFGSSATALSTLLNQKVEITTPSVSVVERKRVADEFPRPYVAIQVNYTEGFLGTNLLVIEQQDAAVIADLMLGGDGTTADSSLGEIQLSAVQEAMNQMMGSAATSMSTIFNKRVDISPPTLHLLDLTEGKGLEYLPDEDFFIKVSFRLKIGALVDSNIMQLLPIDFAKELVTHLLGSSAEAAGTLEKEENIDPSSAGAVPREELQPAPAYAHASDGEFSSAASRFTNEPVGGRSKEEESVAERHIQAADFAEFDDPPLAATEARNLELLFDVPLQVTVELGRTKRSVQEILQLSAGSIIELDKLAGEPVDIFVNNKLIAKGEVVVIDENFGVRITDIVSQNDRLKRLK
For B2, the binding result in assay [2] and in assay [5] was “binds” throughout.
